We go through four molecules from paper PMC4511861.

The chains behind the UniProt entries cited, without tags or fusion partners.
UniProt P27708: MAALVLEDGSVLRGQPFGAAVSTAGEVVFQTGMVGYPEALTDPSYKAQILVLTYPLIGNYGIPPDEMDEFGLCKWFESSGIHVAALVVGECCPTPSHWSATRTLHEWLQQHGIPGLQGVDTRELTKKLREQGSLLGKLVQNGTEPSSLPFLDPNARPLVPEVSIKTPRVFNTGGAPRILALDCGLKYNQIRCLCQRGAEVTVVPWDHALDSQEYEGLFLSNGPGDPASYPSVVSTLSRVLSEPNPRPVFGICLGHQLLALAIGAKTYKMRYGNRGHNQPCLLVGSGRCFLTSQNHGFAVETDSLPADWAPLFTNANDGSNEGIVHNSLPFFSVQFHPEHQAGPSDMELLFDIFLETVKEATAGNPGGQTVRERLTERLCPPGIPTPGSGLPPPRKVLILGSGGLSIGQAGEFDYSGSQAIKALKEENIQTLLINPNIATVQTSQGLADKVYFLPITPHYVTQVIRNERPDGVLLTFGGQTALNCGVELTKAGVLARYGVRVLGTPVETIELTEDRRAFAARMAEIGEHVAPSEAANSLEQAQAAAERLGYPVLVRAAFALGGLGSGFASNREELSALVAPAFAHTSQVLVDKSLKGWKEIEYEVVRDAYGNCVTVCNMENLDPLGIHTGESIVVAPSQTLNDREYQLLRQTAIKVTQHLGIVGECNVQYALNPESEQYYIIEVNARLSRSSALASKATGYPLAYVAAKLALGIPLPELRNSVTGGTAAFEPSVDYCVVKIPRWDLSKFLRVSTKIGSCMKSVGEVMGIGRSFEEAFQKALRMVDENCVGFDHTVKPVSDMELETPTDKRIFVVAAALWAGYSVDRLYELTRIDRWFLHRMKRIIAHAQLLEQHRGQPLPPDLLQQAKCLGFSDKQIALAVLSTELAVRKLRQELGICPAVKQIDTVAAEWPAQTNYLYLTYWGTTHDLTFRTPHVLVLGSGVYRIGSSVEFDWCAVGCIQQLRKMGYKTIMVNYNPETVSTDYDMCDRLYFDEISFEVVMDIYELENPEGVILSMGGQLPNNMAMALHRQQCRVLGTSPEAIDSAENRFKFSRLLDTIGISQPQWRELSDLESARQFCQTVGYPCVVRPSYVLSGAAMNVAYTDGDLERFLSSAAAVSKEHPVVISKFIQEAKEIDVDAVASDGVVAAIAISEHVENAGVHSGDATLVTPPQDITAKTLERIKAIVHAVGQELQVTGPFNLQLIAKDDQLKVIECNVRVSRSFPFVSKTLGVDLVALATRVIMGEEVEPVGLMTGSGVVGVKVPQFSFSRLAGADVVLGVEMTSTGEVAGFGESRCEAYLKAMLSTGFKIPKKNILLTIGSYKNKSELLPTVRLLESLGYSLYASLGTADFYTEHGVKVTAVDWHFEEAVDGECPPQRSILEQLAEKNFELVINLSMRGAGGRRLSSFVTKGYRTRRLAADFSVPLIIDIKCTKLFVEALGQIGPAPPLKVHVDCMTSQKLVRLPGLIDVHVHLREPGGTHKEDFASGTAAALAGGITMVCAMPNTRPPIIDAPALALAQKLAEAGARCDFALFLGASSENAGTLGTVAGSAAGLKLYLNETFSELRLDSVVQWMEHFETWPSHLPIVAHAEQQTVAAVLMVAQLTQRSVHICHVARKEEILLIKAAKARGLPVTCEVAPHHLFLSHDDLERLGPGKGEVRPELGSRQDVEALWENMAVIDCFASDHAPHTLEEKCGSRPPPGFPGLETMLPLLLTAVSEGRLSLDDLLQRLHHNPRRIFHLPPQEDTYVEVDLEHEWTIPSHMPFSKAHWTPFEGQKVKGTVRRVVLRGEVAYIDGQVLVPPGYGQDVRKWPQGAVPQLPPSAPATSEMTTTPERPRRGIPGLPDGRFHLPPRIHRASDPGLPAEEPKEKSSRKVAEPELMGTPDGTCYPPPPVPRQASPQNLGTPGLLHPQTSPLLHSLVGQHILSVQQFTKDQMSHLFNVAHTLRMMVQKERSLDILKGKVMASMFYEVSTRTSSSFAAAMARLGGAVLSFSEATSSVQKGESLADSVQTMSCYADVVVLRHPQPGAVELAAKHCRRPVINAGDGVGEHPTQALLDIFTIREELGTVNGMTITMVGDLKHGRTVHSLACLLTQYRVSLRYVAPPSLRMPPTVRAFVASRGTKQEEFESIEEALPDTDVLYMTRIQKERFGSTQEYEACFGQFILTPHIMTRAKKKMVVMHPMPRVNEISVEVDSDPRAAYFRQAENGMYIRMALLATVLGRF
UniProt P0DMV8: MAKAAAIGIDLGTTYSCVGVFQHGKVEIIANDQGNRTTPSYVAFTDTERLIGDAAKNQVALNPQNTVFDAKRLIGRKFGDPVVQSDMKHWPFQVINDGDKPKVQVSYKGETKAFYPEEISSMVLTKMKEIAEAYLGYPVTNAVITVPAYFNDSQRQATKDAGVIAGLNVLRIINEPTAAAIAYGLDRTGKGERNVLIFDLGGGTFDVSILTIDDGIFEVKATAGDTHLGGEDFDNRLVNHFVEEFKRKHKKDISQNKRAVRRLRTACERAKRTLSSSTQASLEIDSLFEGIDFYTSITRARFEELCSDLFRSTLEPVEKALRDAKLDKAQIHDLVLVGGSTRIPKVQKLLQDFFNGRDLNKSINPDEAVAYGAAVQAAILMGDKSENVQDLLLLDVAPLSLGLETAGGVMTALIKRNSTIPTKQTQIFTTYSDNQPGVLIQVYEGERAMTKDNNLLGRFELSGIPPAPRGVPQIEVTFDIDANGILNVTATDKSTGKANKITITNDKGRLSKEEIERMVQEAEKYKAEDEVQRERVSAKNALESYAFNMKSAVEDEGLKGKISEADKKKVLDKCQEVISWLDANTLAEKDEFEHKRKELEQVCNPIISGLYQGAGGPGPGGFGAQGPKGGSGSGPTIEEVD

Results are given in words; binding and its absence hold for the method and conditions named. In cells and extracts the contact can be indirect. These calls come from enrichment with a bait or labelling near it, and not all partners need be listed. Tags and fused reporters may be left off the sequences shown.

Assay [1] addresses T1, N-terminal FLAG-WDR73 wild-type fusion protein (human) (UniProt Q6P4I2).
T1 sequence: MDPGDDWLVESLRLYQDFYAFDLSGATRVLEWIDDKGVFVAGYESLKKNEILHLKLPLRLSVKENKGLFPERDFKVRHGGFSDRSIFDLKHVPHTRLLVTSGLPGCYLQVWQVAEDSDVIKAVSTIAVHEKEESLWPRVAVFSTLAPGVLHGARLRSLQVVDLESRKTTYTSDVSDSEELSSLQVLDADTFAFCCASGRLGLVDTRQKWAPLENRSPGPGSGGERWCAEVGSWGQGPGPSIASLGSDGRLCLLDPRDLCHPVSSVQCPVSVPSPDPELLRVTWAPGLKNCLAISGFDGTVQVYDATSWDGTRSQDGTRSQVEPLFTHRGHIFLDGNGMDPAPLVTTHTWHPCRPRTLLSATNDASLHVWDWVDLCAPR
In words: affinity purification with mass spectrometry; FLAG-WDR73 immunoprecipitated from transfected HEK-293T lysate; eluted proteins separated by SDS-PAGE, Coomassie bands unique against empty vector (FLAG peptide only) excised, trypsin, MALDI-TOF peptide mass fingerprinting; n = 4 replicates.

The target in assay [2] is T2, N-terminal FLAG-WDR73 wild-type fusion protein (human), Q6P4I2.
T2 chain: T1 sequence
The description is as above. The settings on record: remark: other sources report otherwise.

“CAD (carbamoyl-phosphate synthetase 2, aspartate transcarbamylase, and dihydroorotase), endogenous (from UniProt P27708 1-2225) (enzyme)”: in assay [1], the binding result is “binds”.

Consider “heat shock 70-kDa protein 1A/1B (HSP-70) (from UniProt P0DMV8 1-641)”, for which the binding result in assay [1] is recorded as “binds”.

For the molecule “heat shock protein HSP90 alpha isoform 2 (HSP-90) (from UniProt P07900 1-732)”, the binding entry in assay [1] is on record as “binds”.

B1: β-tubulin 4B (TUBB4B), P68371 1-445 (protein)
chain: MREIVHLQAGQCGNQIGAKFWEVISDEHGIDPTGTYHGDSDLQLERINVYYNEATGGKYVPRAVLVDLEPGTMDSVRSGPFGQIFRPDNFVFGQSGAGNNWAKGHYTEGAELVDSVLDVVRKEAESCDCLQGFQLTHSLGGGTGSGMGTLLISKIREEYPDRIMNTFSVVPSPKVSDTVVEPYNATLSVHQLVENTDETYCIDNEALYDICFRTLKLTTPTYGDLNHLVSATMSGVTTCLRFPGQLNADLRKLAVNMVPFPRLHFFMPGFAPLTSRGSQQYRALTVPELTQQMFDAKNMMAACDPRHGRYLTVAAVFRGRMSMKEVDEQMLNVQNKNSSYFVEWIPNNVKTAVCDIPPRGLKMSATFIGNSTAIQELFKRISEQFTAMFRRKAFLHWYTGEGMDEMEFTEAESNMNDLVSEYQQYQDATAEEEGEFEEEAEEEVA
For B1, the binding entry in assay [2] was “binds”.
